# Test results as given in PubChem BioAssay AID445 (National Center for Advancing Translational Sciences (NCATS), 2006).
# This is one part of the list. The main result of the screen is listed elsewhere. These columns were measured beside it and carry no call. Most of these compounds were active or inconclusive in the main read-out, so they are no random draw. Potencies come from curve fits of mixed quality, noted in brackets.
# Experiment: IkB Signaling
# Details: ABC-DLBCL IkBa-CBG/CBR dual luciferase ratio (green luciferase fused to IkBa over red control in OCI-Ly3 lymphoma cells), 4 h
# Method in brief: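 Curves were fitted separately to fusion (green), unfused (red) and ratio luminescence, then classed by r2, magnitude and activity. Cells: OCI-Ly3, 4 h compound plus doxycycline at 37C; 10 uM MG-132 defined full response.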
# [1] = measured here: control luc red channel unless noted
smiles,measurement,setting,value
CCCCOc1ccc(C(=O)N2CCC(c3nc4ccccc4o3)CC2)cc1,AC50,[1],"15.8 µM [falling, partial curve]"
Cc1nn(C(=O)COc2ccccc2)c(C)c1Sc1ccccc1,AC50,[1],"25.1 µM [falling, single point]"
CCOc1ccc(CC(=O)NCCc2csc(-c3ccc(C(F)(F)F)cc3)n2)cc1,AC50,[1],"1.26 µM [rising, full curve, poor fit]"
Cc1c(C)n(C)c2ccc(C(=O)NCc3cccs3)cc12,AC50,[1],"39.8 µM [falling, single point]"
CCN(c1cccc(C)c1)S(=O)(=O)c1ccc2c(c1)NC(=O)CCS2,AC50,[1],"0.0316 µM [falling, full curve]"
Cc1c(Cl)cccc1Nc1nn2c(=O)c3ccc(C(=O)NCCc4ccccc4)cc3nc2s1,AC50,[1],"20 µM [falling, partial curve]"
O=C(c1cc(-c2ccc3c(c2)OCO3)on1)N1CCN(c2ccc(F)cc2)CC1,AC50,[1],"0.631 µM [falling, full curve, poor fit]"
O=C(NC1CC(=O)N(c2ccccc2)C1)c1ccc(Br)o1 (configuration not stated),AC50,[1],"5.01 µM [falling, single point]"
Cc1cccc(N(CC(=O)NCCSCc2ccc(Cl)cc2)S(C)(=O)=O)c1C,AC50,[1],"20 µM [falling, partial curve]"
CCOc1ccc(NC(=O)c2cc3c(n(-c4ccc(OC)cc4)c2=O)CC(C)(C)CC3=O)cc1,AC50,[1],"12.6 µM [falling, partial curve]"
Cc1nn(Cc2ccc(C(=O)N3c4ccc(F)cc4CCC3C)o2)c(C)c1Br (configuration not stated),AC50,[1],"15.8 µM [falling, partial curve]"
CCOC(=O)Cn1c(=O)oc2cc(S(=O)(=O)N3CCN(c4ccccc4F)CC3)ccc21,AC50,[1],"15.8 µM [falling, partial curve]"
CCOC(=O)c1ccc2c(c1)N(CC(=O)Nc1ccc(C)cc1C)C(=O)c1ccccc1S2,AC50,[1],"5.01 µM [falling, full curve, poor fit]"
CCn1cc(C(=O)NCCCN(CC(C)C)CC(C)C)c(=O)c2cc(S(=O)(=O)N(C)C3CCCCC3)ccc21,AC50,[1],"6.31 µM [falling, partial curve]"
COc1ccc(NC(=O)CCc2nnc3n(C)c(=O)c4sccc4n23)cc1Cl,AC50,[1],"10 µM [falling, single point]"
O=S(=O)(c1ccccc1F)N1CCC(Oc2ccc(-n3cnnn3)cc2)CC1,AC50,[1],"15.8 µM [falling, partial curve]"
O=C1CC(N2CCN(C/C=C/c3ccccc3)CC2)C(=O)N1CCc1ccccc1 (configuration not stated),AC50,[1],"20 µM [falling, partial curve]"
Cc1ccc(-c2nc(CSCC(=O)NCCN3CCN(Cc4ccccc4)CC3)c(C)o2)cc1,AC50,[1],"12.6 µM [falling, partial curve]"
CN(CCc1ccc(Cl)c(Cl)c1)C[C@@H](O)COc1ccc(NS(C)(=O)=O)cc1,AC50,[1],"39.8 µM [falling, partial curve]"
COc1cccc(CNc2nc3c(-c4ccccc4)nnn3c3ccccc23)c1,AC50,[1],"3.16 µM [falling, partial curve]"
COc1ccc(CCNC(=O)Cn2c(=O)n(-c3cc(OC)c(OC)c(OC)c3)c(=O)c3ccccc32)cc1OC,AC50,[1],"0.0316 µM [falling, full curve, poor fit]"
Cc1ccc2oc(=O)c3cnn(CC(=O)N4CCN(c5cc(Cl)ccc5C)CC4)c3c2c1,AC50,[1],"20 µM [falling, partial curve]"
CCOc1ccc(CCNCc2c(C(=O)O)n(Cc3ccc(C)cc3)c3cc(OC)ccc23)cc1,AC50,[1],"31.6 µM [falling, single point]"
CN(Cc1ccccc1)C(=O)CSc1nc2ccsc2c(=O)n1-c1ccc(F)cc1,AC50,[1],"3.16 µM [rising, partial curve]"
Cc1cccc(NC(=O)c2sc3nc(-c4ccc(F)cc4)cn3c2C)n1,AC50,[1],"5.01 µM [falling, full curve]"
CCN(CC(=O)Nc1ccc2c(c1)OCCO2)Cc1cc(=O)oc2c(C)c(C)ccc12,AC50,[1],"39.8 µM [falling, single point]"
COc1ccc(-c2csc3nc(-c4ccc(F)cc4)oc(=O)c23)cc1,AC50,[1],"2.51 µM [falling, full curve]"
COCCNC(=O)c1ccc(-n2c(-c3ccccc3)cc3c2CCCCC3)cc1,AC50,[1],"31.6 µM [falling, single point]"
COc1ccc(C2=NS(=O)(=O)N(C)C(C(=O)NCc3ccccc3)=C2)cc1OC,AC50,[1],"1 µM [falling, partial curve]"
Cc1ccc(S(=O)(=O)N2CCN(C(=O)CSc3nc4ccccc4o3)C2)cc1,AC50,[1],"15.8 µM [falling, partial curve]"
CCn1c(=O)n(CC)c2cc(S(=O)(=O)N3CCC(c4ccccc4)CC3)ccc21,AC50,[1],"12.6 µM [falling, partial curve]"
CCc1ccc(NC(=O)C(=O)NCC(c2ccc3c(c2)OCO3)N2CCOCC2)cc1 (configuration not stated),AC50,[1],"12.6 µM [rising, partial curve]"
COc1ccc(-c2cc(C(=O)Nc3ccn(Cc4ccc(C)cc4)n3)no2)cc1OC,AC50,[1],"0.316 µM [rising, full curve]"
O=C(Nc1cccnc1)c1cc(-c2ccc3c(c2)OCO3)on1,AC50,[1],"3.16 µM [falling, full curve]"
CCC(C(=O)NCc1ccccc1OC)n1nc(C)n2c(cc3sccc32)c1=O (configuration not stated),AC50,[1],"39.8 µM [falling, single point]"
CCNC(=O)[C@@H]1O[C@@H](n2cnc3c(NCc4ccccc4)ncnc32)[C@@H](O)[C@H]1O,AC50,measured here: IkB-luc green channel,"7.94 µM [rising, full curve, poor fit]"
same,AC50,measured here: control luc red channel,"0.631 µM [rising, full curve, poor fit]"
CCOC(=O)c1c(S(=O)(=O)NCC(=O)Nc2ccc(C)c(Cl)c2)c(C)n(C)c1C,AC50,[1],"25.1 µM [falling, single point]"
COc1ccc(NC(=O)C2CCCN2S(=O)(=O)c2cccc3cccnc23)cc1OC (configuration not stated),AC50,[1],"0.398 µM [rising, full curve]"
CC(=O)C1=C(C)NC(SCC(=O)c2ccc(Cl)c(Cl)c2)=C(C#N)C1c1ccco1 (configuration not stated),AC50,[1],"10 µM [falling, partial curve]"
CCOC(=O)c1cnc2ccc(C(=O)OC)cc2c1Nc1ccccc1CC,AC50,[1],"15.8 µM [falling, partial curve]"
CCCC(=O)NC(c1ccco1)c1cc(Cl)c2cccnc2c1O (configuration not stated),AC50,[1],"0.398 µM [falling, full curve]"
O=C(Nc1ccc2c(c1)ncn2-c1ccccc1)c1ccco1,AC50,[1],"10 µM [falling, partial curve]"
CCc1ccccc1N(C)C(=O)c1cnc(N2CCOCC2)c2ccccc12,AC50,[1],"0.2 µM [falling, partial curve]"
Cc1ccc(Cc2nc3ccccc3nc2SCC(=O)NCc2ccc(F)cc2)cc1,AC50,[1],"2.51 µM [falling, full curve]"
Cc1cc(Br)ccc1NC(=O)c1cn(C2CCCC2)c(=O)c2c1c1ccccc1n2C,AC50,[1],"1 µM [falling, full curve, poor fit]"
COc1ccc(CCNc2ncnc3c2c(-c2ccccc2)cn3-c2ccc(F)cc2)cc1OC,AC50,[1],"31.6 µM [falling, single point]"
Cc1cnn(-c2ccc3nnc(-c4ccc(Br)cc4)n3n2)c1,AC50,[1],"0.0794 µM [falling, full curve]"
Cc1ccc(C)c(Nc2nn3c(=O)c4ccc(C(=O)NCCc5ccccc5)cc4nc3s2)c1,AC50,[1],"10 µM [falling, partial curve]"
Cc1ccc(N2CCN(C(=O)c3c4c(nc5ccccc35)C(=O)N(C3CCCCC3)C4)CC2)c(C)c1,AC50,[1],"25.1 µM [falling, partial curve]"
CCOC(=O)N1CCN(S(=O)(=O)c2ccc(OCC)c3ccccc23)CC1,AC50,[1],"25.1 µM [falling, single point]"
COc1ccc(C(=O)Nc2nc3c(s2)CCc2cc(OC)ccc2-3)cc1,AC50,[1],"10 µM [falling, partial curve]"
COCCCn1c(SCC(=O)NCc2ccccc2)nc2c(sc3ccccc32)c1=O,AC50,[1],"6.31 µM [rising, partial curve, poor fit]"
Oc1c(C(c2ccc(Cl)cc2)N2CCC3(CC2)OCCO3)sc2nc(-c3ccco3)nn12 (configuration not stated),AC50,[1],"0.1 µM [rising, full curve, poor fit]"
N#C/C(C(N)=O)=c1/ccc2c(c1)N1C3=C(CCCC3)CC3CCCCC31N=2 (configuration not stated),AC50,[1],"10 µM [falling, partial curve]"
CCc1ccc(-c2[nH]c3c(c2-c2sc(C)c(C(=O)OC)c2O)c(=O)[nH]c(=O)n3C)cc1,AC50,[1],"12.6 µM [falling, partial curve]"
CCCCN(CC)C(=O)Cc1c(C(=O)O)[nH]c2ccc(Cl)cc12,AC50,[1],"15.8 µM [falling, partial curve]"
CCOc1ccc(CCNC(c2cccc(Cl)c2)c2nnc(-c3ccccc3)o2)cc1OCC (configuration not stated),AC50,[1],"15.8 µM [falling, partial curve]"
COC(=O)c1ccc2c(c1)N(Cc1ccc(F)cc1)C(=O)c1ccccc1S2,AC50,[1],"15.8 µM [falling, partial curve]"
COc1cccc(/C=C/c2nc(C#N)c(NCCc3ccc(OC)c(OC)c3)o2)c1,AC50,[1],"39.8 µM [falling, partial curve]"
CCCCN(CCCC)S(=O)(=O)c1ccc2oc(C(=O)NCc3ccc(C)cc3)c(C)c2c1,AC50,[1],"3.98 µM [falling, partial curve]"
CCCCN1C(=O)C(O)(c2c[nH]c3ccccc23)c2cc(Br)ccc21 (configuration not stated),AC50,[1],"25.1 µM [falling, single point]"

# Quoted at random: 2 entries already listed
smiles,measurement,setting,value
CN(Cc1ccccc1)C(=O)CSc1nc2ccsc2c(=O)n1-c1ccc(F)cc1,AC50,[1],"3.16 µM [rising, partial curve]"
O=C(Nc1ccc2c(c1)ncn2-c1ccccc1)c1ccco1,AC50,[1],"10 µM [falling, partial curve]"
